Earlier results in patent US8623861B2, “Method of treating demyelination diseases” (priority 2006, dated 2014).
For at least one compound, name, drawing or mass did not settle the structure.

Key:
rat retrosplenial cortex = conditions: pre-treatment, cited from earlier work
PC 12 cell = conditions: serum withdrawal or addition of hydrogen peroxide, β-amyloid peptide or MPP+; cited from earlier work
BDNF = conditions: Xu et al., 2002; Luo et al., 2004; cited from earlier work
rats = conditions: He et al., 2005; cited from earlier work
[1] = Fujimura et al., 2000, Hashimoto et al.

SMILES: Cc1cc2c(s1)Nc1ccccc1N=C2N1CCN(C)CC1 [olanzapine]
- neurotoxicity produced by dizocilpine (MK-801) (rat retrosplenial cortex; Farber et al., 1993, 1996): had the same effect in preventing MK-801-induced neurotoxicity
- expression of Fos-like protein induced by dizocilpine (rat retrosplenial cortex; [1]): significantly attenuated the expression of Fos-like protein
- neuronal vacuolization induced by dizocilpine (rat retrosplenial cortex; [1]): blocked the neuronal vacuolization
- PC 12 cell death (PC 12 cell): reduce the PC 12 cell death
- expression of BDNF in rat hippocampus after immobilization stress (BDNF): attenuate the immobilization stress-induced decrease in the expression of BDNF
- short- and long-term behavioral consequences of chronic dl-amphetamine (rats): modulate the short- and long-term behavioral consequences
